The record followed here is paper PMC10117725, “From an Hsp90 - binding protein to a peptide drug” (microLife, 2022).

Protein sequences, listed by entry. Tags and fused reporters are not part of them. Lines headed by an entry give the natural chain unless they say otherwise; changes in a name come on top.
UniProt Q2FJK4: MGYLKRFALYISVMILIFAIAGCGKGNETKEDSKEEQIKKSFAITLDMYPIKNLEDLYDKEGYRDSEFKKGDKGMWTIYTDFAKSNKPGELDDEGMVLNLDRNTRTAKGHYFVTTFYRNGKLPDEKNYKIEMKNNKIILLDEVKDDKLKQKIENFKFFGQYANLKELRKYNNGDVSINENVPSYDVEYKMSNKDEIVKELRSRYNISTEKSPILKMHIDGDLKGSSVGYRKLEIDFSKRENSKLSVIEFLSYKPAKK

These are yes or no findings as the source states them, for the method shown. Binding calls can cover weak binding; strength is not graded here.

Test in all cases: far-Western, overlay or dot blot; both purified
Assay [1] deals with T1, L13 (Staphylococcus aureus USA300).
T1 sequence (peptide): GHYFVTTFY

Assay [2] has as its target T2, L15 (Staphylococcus aureus USA300).
T2 sequence (peptide): TAKGHYFVTTFYRNG

The target of assay [3] is Lpl1-his (Staphylococcus aureus USA300) (UniProt Q2FJK4).

Regarding Lpl1-his (from UniProt Q2FJK4), the binding result in assay [1] and in assay [2] was “binds” in each case.

On to “recombinant Hsp90α (from UniProt P07900 1-732)”, for which, in assay [3], the binding entry is “binds”.
